# Measurements as given in the supplement of paper PMC8728848.
# The list shows a part of the results.
# How the values were obtained:
# Experiment in all cases: glycan array binding signal (z-score within array); higher = stronger binding
# Conditions in all cases: glycan notation: IUPAC condensed, linker removed
# [1] = target: Neu5Ac(a2-6)GlcNAc(b1-4)GlcNAc(b1-4)GlcNAc
# Summary of the method: (§1)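 Negative Z-scores can be read as non-binding. The Z-score is calculated within each array and then averaged across arrays of one protein sequence at different concentrations or buffers and across linkers. Arrays, 3228 in all, were curated from the Consortium for Functional Glycomics database and kept only where the protein sequence was available.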
# Neu5Ac(a2-8)Neu5Ac = target: Neu5Ac(a2-8)Neu5Ac
# Summary of the method: as §1
# [2] = target: Neu5Ac(a2-8)Neu5Ac(a2-3)Gal(b1-3)GalNAc(b1-4)[Neu5Ac(a2-3)]Gal(b1-4)Glc
# Summary of the method: as §1
# [3] = target: Neu5Ac(a2-8)Neu5Ac(a2-3)Gal(b1-3)GalNAc(b1-4)[Neu5Ac(a2-8)Neu5Ac(a2-3)]Gal(b1-4)Glc
# Summary of the method: as §1
# [4] = target: Neu5Ac(a2-8)Neu5Ac(a2-3)Gal(b1-4)Glc
# Summary of the method: as §1
# [5] = target: Neu5Ac(a2-8)Neu5Ac(a2-3)Gal(b1-4)GlcNAc
# Summary of the method: as §1
# [6] = target: Neu5Ac(a2-8)Neu5Ac(a2-3)[Gal(b1-3)GalNAc(b1-4)]Gal(b1-4)Glc
# Summary of the method: as §1
# [7] = target: Neu5Ac(a2-8)Neu5Ac(a2-3)[GalNAc(b1-4)]Gal(b1-4)Glc
# Summary of the method: as §1
# [8] = target: Neu5Ac(a2-8)Neu5Ac(a2-8)Neu5Ac
# Summary of the method: as §1
# [9] = target: Neu5Ac(a2-8)Neu5Ac(a2-8)Neu5Ac(a2-3)Gal(b1-4)Glc
# Summary of the method: as §1
# [10] = target: Neu5Ac(a2-8)Neu5Ac(a2-8)Neu5Ac(a2-3)[Gal(b1-3)GalNAc(b1-4)]Gal(b1-4)Glc
# Summary of the method: as §1
# [11] = target: Neu5Ac(a2-8)Neu5Ac(a2-8)Neu5Ac(a2-3)[GalNAc(b1-4)]Gal(b1-4)Glc
# Summary of the method: as §1
# [12] = target: Neu5Ac(a2-8)Neu5Ac(a2-8)Neu5Ac(a2-8)Neu5Ac(a2-3)[GalNAc(b1-4)]Gal(b1-4)Glc
# Summary of the method: as §1
# [13] = target: Neu5Ac(a2-8)Neu5Gc(a2-3)Gal(b1-4)GlcNAc
# Summary of the method: as §1
# [14] = target: Neu5Ac(b2-6)Gal(b1-4)GlcNAc
# Summary of the method: as §1
# Neu5Ac(b2-6)GalNAc = target: Neu5Ac(b2-6)GalNAc
# Summary of the method: as §1
# [15] = target: Neu5Ac9Ac(a2-3)Gal(b1-3)GlcNAc
# Summary of the method: as §1
# [16] = target: Neu5Ac9Ac(a2-3)Gal(b1-4)GlcNAc
# Summary of the method: as §1
# [17] = target: Neu5Ac9Ac(a2-6)Gal(b1-4)GlcNAc
# Summary of the method: as §1
# [18] = target: Neu5Gc(a2-3)Gal(b1-3)GlcNAc
# Summary of the method: as §1
# [19] = target: Neu5Gc(a2-3)Gal(b1-3)[Fuc(a1-4)]GlcNAc
# Summary of the method: as §1
# Neu5Gc(a2-3)Gal(b1-4)Glc = target: Neu5Gc(a2-3)Gal(b1-4)Glc
# Summary of the method: as §1
# [20] = target: Neu5Gc(a2-3)Gal(b1-4)GlcNAc
# Summary of the method: as §1
# [21] = target: Neu5Gc(a2-3)Gal(b1-4)GlcNAc(b1-3)Gal(b1-4)GlcNAc(b1-2)Man(a1-3)[Neu5Gc(a2-3)Gal(b1-4)GlcNAc(b1-3)Gal(b1-4)GlcNAc(b1-2)Man(a1-6)]Man(b1-4)GlcNAc(b1-4)GlcNAc
# Summary of the method: as §1
# [22] = target: Neu5Gc(a2-3)Gal(b1-4)[Fuc(a1-3)]GlcNAc
# Summary of the method: as §1
# [23] = target: Neu5Gc(a2-6)Gal(b1-4)GlcNAc
# Summary of the method: as §1
# Neu5Gc(a2-6)GalNAc = target: Neu5Gc(a2-6)GalNAc
# Summary of the method: as §1
# [24] = target: Neu5Gc(a2-8)Neu5Ac(a2-3)Gal(b1-4)GlcNAc
# Summary of the method: as §1
# [25] = target: Neu5Gc(a2-8)Neu5Gc(a2-3)Gal(b1-4)GlcNAc
# Summary of the method: as §1
# [26] = target: Neu5Gc(a2-8)Neu5Gc(a2-3)Gal(b1-4)GlcNAc(b1-3)Gal(b1-4)GlcNAc
# Summary of the method: as §1
# [27] = target: Neu5Gc(a2-8)Neu5Gc(a2-6)Gal(b1-4)GlcNAc
# Summary of the method: as §1
# [28] = target: Neu5Gc(b2-6)Gal(b1-4)GlcNAc
# Summary of the method: as §1
binder,measurement,setting,value
SP15308F-bth-333-19-333 (Bacteroides thetaiotaomicron) (protein) SCNNEWESEQYVQMVSFKAPVNAQGVTPIYIRYKPEGKVTYQLPLIVSGSTMNSKDLNVHVGLDLDTLDVLNVEHFGSRKELFFKPLENKYYEFPETVQIPAGECTSLLPIDFALKDLDQVDKWVLPLAIQSNDPSHNYQANPRKFYRRAMLRISPFNDYSGQYSATAYKVYFKGNEKEAIVPEYHTSYVIDDKTIFFYAGLIDIDRLDRKYYKIKFEFTEEKIDLQTRKLKISSDNEDINLVVKGQPSYTVEEEMDATRPYLKHIYVTINNLEYEFTDYTSVPGYPLEYVVKGSLTMERKINTQIPDEDQAIEW,glycan array binding signal (z-score),[1],-0.92
same,glycan array binding signal (z-score),Neu5Ac(a2-8)Neu5Ac,0.541
same,glycan array binding signal (z-score),[2],-0.745
same,glycan array binding signal (z-score),[3],1.36
same,glycan array binding signal (z-score),[4],-1.69
same,glycan array binding signal (z-score),[5],-0.461
same,glycan array binding signal (z-score),[6],0.283
same,glycan array binding signal (z-score),[7],-0.682
same,glycan array binding signal (z-score),[8],-0.609
same,glycan array binding signal (z-score),[9],-0.372
same,glycan array binding signal (z-score),[10],-0.122
same,glycan array binding signal (z-score),[11],-0.133
same,glycan array binding signal (z-score),[12],-0.063
same,glycan array binding signal (z-score),[13],0.16
same,glycan array binding signal (z-score),[14],0.245
same,glycan array binding signal (z-score),Neu5Ac(b2-6)GalNAc,-0.677
same,glycan array binding signal (z-score),[15],0.704
same,glycan array binding signal (z-score),[16],-0.366
same,glycan array binding signal (z-score),[17],-1.32
same,glycan array binding signal (z-score),[18],0.049
same,glycan array binding signal (z-score),[19],0.217
same,glycan array binding signal (z-score),Neu5Gc(a2-3)Gal(b1-4)Glc,1
same,glycan array binding signal (z-score),[20],0.838
same,glycan array binding signal (z-score),[21],-0.366
same,glycan array binding signal (z-score),[22],-0.947
same,glycan array binding signal (z-score),[23],-0.941
same,glycan array binding signal (z-score),Neu5Gc(a2-6)GalNAc,0.096
same,glycan array binding signal (z-score),[24],2.07
same,glycan array binding signal (z-score),[25],-0.784
same,glycan array binding signal (z-score),[26],-0.522
same,glycan array binding signal (z-score),[27],-0.185
same,glycan array binding signal (z-score),[28],1.06

# Exported with tabs: entries from further up
binder	measurement	setting	value
SP15308F-bth-333-19-333 (Bacteroides thetaiotaomicron) (protein) SCNNEWESEQYVQMVSFKAPVNAQGVTPIYIRYKPEGKVTYQLPLIVSGSTMNSKDLNVHVGLDLDTLDVLNVEHFGSRKELFFKPLENKYYEFPETVQIPAGECTSLLPIDFALKDLDQVDKWVLPLAIQSNDPSHNYQANPRKFYRRAMLRISPFNDYSGQYSATAYKVYFKGNEKEAIVPEYHTSYVIDDKTIFFYAGLIDIDRLDRKYYKIKFEFTEEKIDLQTRKLKISSDNEDINLVVKGQPSYTVEEEMDATRPYLKHIYVTINNLEYEFTDYTSVPGYPLEYVVKGSLTMERKINTQIPDEDQAIEW	glycan array binding signal (z-score)	Neu5Ac(b2-6)GalNAc	-0.677
same	glycan array binding signal (z-score)	[15]	0.704
same	glycan array binding signal (z-score)	[16]	-0.366
